Values from PubChem BioAssay AID504808 (Drosophila RNAi Screening Center, 2011).

Aim: 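Fly genes required to hold E2F transcription in check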 (primary screen)
Cells: Drosophila S2 cells
Reagents: long dsRNA against Drosophila genes
Measured: 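Firefly luciferase driven by E2F sites, normalised to Renilla luciferase on the same minimal promoter, measured by plate reader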
Reading the numbers: E2F firefly: higher = more E2F reporter activity; Renilla normaliser: higher = more normaliser reporter signal
Active means: 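a knock-down counted as active when the firefly/Renilla E2F signal rose above 50%, a threshold chosen arbitrarily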
The deposit covers about 21,000 reagents; this is an unselected part of those that have a named target and a result. In the full data, 18 (0.084%) got an active call. 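Raw counts without plate normalisation, one of two replicates; the ratio scores behind the calls were not deposited.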 A number with no mark means an inactive call. Not stated in the record: the amount of reagent, the time to read-out.

gene knocked down | PubChem SID | E2F firefly, rep 1 | Renilla normaliser, rep 1
Atg6 (GeneID 42850) | SID104195590 | 72595 | 3201
E(spl)malpha-BFM (GeneID 43153) | SID104196786 | 61334 | 5131
trpl (GeneID 36003) | SID104186520 | 1.49e5 | 5352
trpl (GeneID 36003) | SID104186521 | 1.46e5 | 4734
CG12159 (GeneID 35741) | SID104185906 | 1.41e5 | 4463
Pka-C3 (GeneID 39733) | SID104189194 | 1.35e5 | 4192
Pka-C3 (GeneID 39733) | SID104191046 | 1.24e5 | 6355
Polr3E (GeneID 40325) | SID104191672 | 1.24e5 | 7131
Gr36c (GeneID 117486) | SID104182229 | 1.11e5 | 4333
PH4alphaNE1 (GeneID 43625) | SID104196338 | 1885 | 784
tara (GeneID 53562) | SID104196868 | 1.10e5 | 5396
CG1486 (GeneID 33108) | SID104200300 | 1.51e5 | 5823
Cht6 (GeneID 31935) | SID104197793 | 1.21e5 | 6092
Cht6 (GeneID 31935) | SID104197794 | 79998 | 4109
Cht6 (GeneID 31935) | SID104198045 | 1.32e5 | 6852
CG8388 (GeneID 36763) | SID104186949 | 1.50e5 | 4781
corto (GeneID 40616) | SID104192167 | 1.24e5 | 5528
Pak3 (GeneID 41995) | SID104194809 | 68447 | 3352
CG3222 (GeneID 39114) | SID104190147 | 88352 | 4097
CG14153 (GeneID 39208) | SID104189947 | 1.18e5 | 6198
Tbp (GeneID 37476) | SID104184454 | 83056 | 3592
CG14683 (GeneID 41278) | SID104196827 | 84041 | 3655
Rox8 (GeneID 42848) | SID104196621 | 1.03e5 | 6233
Ntan1 (GeneID 37147) | SID104187338 | 1.58e5 | 5645
CG13197 (GeneID 36253) | SID104186114 | 1.09e5 | 4469
GstO3 (GeneID 38972) | SID104190502 | 1.02e5 | 3990
CG9444 (GeneID 41175) | SID104196285 | 1.34e5 | 6046
Trm7-34 (GeneID 42508) | SID104195963 | 1.37e5 | 6813
ND-49 (GeneID 43798) | SID104196943 | 64234 | 4260
mus302 (GeneID 39874) | SID104189697 | 1.65e5 | 8707
Rim2 (GeneID 33350) | SID104179865 | 1.38e5 | 6747
Rim2 (GeneID 33350) | SID104180312 | 84307 | 3715
CG6191 (GeneID 36513) | SID104185730 | 3094 | 186
CG15046 (GeneID 32833) | SID104199414 | 1.45e5 | 5797
hkb (GeneID 40549) | SID104192169 | 1.12e5 | 6670
TTLL1A (GeneID 32704) | SID104199913 | 1.53e5 | 5314
stwl (GeneID 39581) | SID104191192 | 65578 | 3225
Mal-A4 (GeneID 35827) | SID104187028 | 1.38e5 | 4778
CG17666 (GeneID 39452) | SID104190068 | 1.36e5 | 7781
CG31855 (GeneID 318983) | SID104182760 | 87902 | 3833
CG12516 (GeneID 43370) | SID104194316 | 1.14e5 | 5238
Ir68a (GeneID 39269) | SID104190391 | 1.20e5 | 6586
Osi3 (GeneID 40757) | SID104191967 | 1.39e5 | 6906
CG4734 (GeneID 36477) | SID104186677 | 1.10e5 | 4583
Prp31 (GeneID 39655) | SID104190527 | 74622 | 3617
Sfp93F (GeneID 8673963) | SID104193297 | 48924 | 3299
MTPAP (GeneID 31081) | SID104198377 | 1.15e5 | 5068
Nelf-A (GeneID 42520) | SID104195695 | 67616 | 3583
bb8 (GeneID 42756) | SID104195370 | 1.13e5 | 6437
hgo (GeneID 34552) | SID104183336 | 1.45e5 | 5861
CG34244 (GeneID 5740216) | SID104189096 | 1.47e5 | 2527
c11.1 (GeneID 53436) | SID104198541 | 1.32e5 | 6067
CG12985 (GeneID 32774) | SID104199297 | 1.52e5 | 6233
SCAP (GeneID 35529) | SID104184661 | 1.05e5 | 4363
SCAP (GeneID 35529) | SID104184699 | 1.16e5 | 4874
Sec23 (GeneID 40694) | SID104192179 | 64679 | 3655
Rab8 (GeneID 40168) | SID104191053 | 76736 | 3308
